Assay results reported in the supplement of paper PMC8728848.
The other results are listed elsewhere or left out.

What was measured:
Assay in all cases: glycan array binding signal (z-score within array); higher = stronger binding
Details in all cases: glycan notation: IUPAC condensed, linker removed
[1] = biological target: Gal(b1-3)[GlcNAc(b1-6)]GalNAc
Method in brief: (§1)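 Columns mapping to the same glycan were averaged after glycan names were converted to IUPAC-condensed notation. The data come from 3228 arrays in the Consortium for Functional Glycomics database, limited to those with an available protein sequence. Binding is reported as a within-array Z-score averaged across arrays of one protein sequence and across linkers.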

[2] = biological target: Gal(b1-3)[Neu5Ac(a2-6)]GalNAc
Method in brief: as §1

[3] = biological target: Gal(b1-3)[Neu5Ac(a2-6)]GlcNAc(b1-4)Gal(b1-4)Glc
Method in brief: as §1

[4] = biological target: Gal(b1-3)[Neu5Ac(b2-6)]GalNAc
Method in brief: as §1

Gal(b1-4)Gal = biological target: Gal(b1-4)Gal
Method in brief: as §1

[5] = biological target: Gal(b1-4)GalNAc(a1-3)[Fuc(a1-2)]Gal(b1-4)GlcNAc
Method in brief: as §1

[6] = biological target: Gal(b1-4)GalNAc(b1-3)[Fuc(a1-2)]Gal(b1-4)GlcNAc
Method in brief: as §1

Gal(b1-4)Glc = biological target: Gal(b1-4)Glc
Method in brief: as §1

Gal(b1-4)Glc6S = biological target: Gal(b1-4)Glc6S
Method in brief: as §1

Gal(b1-4)GlcNAc = biological target: Gal(b1-4)GlcNAc
Method in brief: as §1

[7] = biological target: Gal(b1-4)GlcNAc(a1-6)Gal(b1-4)GlcNAc
Method in brief: as §1

Gal(b1-4)GlcNAc(b1-2)Man = biological target: Gal(b1-4)GlcNAc(b1-2)Man
Method in brief: as §1

[8] = biological target: Gal(b1-4)GlcNAc(b1-2)Man(a1-3)Man(b1-4)GlcNAc(b1-4)GlcNAc
Method in brief: as §1

[9] = biological target: Gal(b1-4)GlcNAc(b1-2)Man(a1-3)[Gal(b1-4)GlcNAc(b1-2)Man(a1-6)]Man(b1-4)GlcNAc(b1-4)GlcNAc
Method in brief: as §1

[10] = biological target: Gal(b1-4)GlcNAc(b1-2)Man(a1-3)[Gal(b1-4)GlcNAc(b1-2)Man(a1-6)]Man(b1-4)GlcNAc(b1-4)[Fuc(a1-6)]GlcNAc
Method in brief: as §1

[11] = biological target: Gal(b1-4)GlcNAc(b1-2)Man(a1-3)[Gal(b1-4)GlcNAc(b1-2)Man(a1-6)][Gal(b1-4)GlcNAc(b1-4)]Man(b1-4)GlcNAc(b1-4)[Fuc(a1-6)]GlcNAc
Method in brief: as §1

[12] = biological target: Gal(b1-4)GlcNAc(b1-2)Man(a1-3)[Gal(b1-4)GlcNAc(b1-2)Man(a1-6)][GlcNAc(b1-4)]Man(b1-4)GlcNAc(b1-4)[Fuc(a1-6)]GlcNAc
Method in brief: as §1

[13] = biological target: Gal(b1-4)GlcNAc(b1-2)Man(a1-3)[GlcNAc(b1-2)Man(a1-6)]Man(b1-4)GlcNAc(b1-4)GlcNAc
Method in brief: as §1

[14] = biological target: Gal(b1-4)GlcNAc(b1-2)Man(a1-3)[GlcNAc(b1-4)][Gal(b1-4)GlcNAc(b1-2)Man(a1-6)]Man(b1-4)GlcNAc(b1-4)GlcNAc
Method in brief: as §1

[15] = biological target: Gal(b1-4)GlcNAc(b1-2)Man(a1-3)[Man(a1-6)]Man(b1-4)GlcNAc(b1-4)GlcNAc
Method in brief: as §1

[16] = biological target: Gal(b1-4)GlcNAc(b1-2)Man(a1-6)Man(b1-4)GlcNAc(b1-4)GlcNAc
Method in brief: as §1

[17] = biological target: Gal(b1-4)GlcNAc(b1-2)Man(a1-6)[GlcNAc(b1-2)Man(a1-3)]Man(b1-4)GlcNAc(b1-4)GlcNAc
Method in brief: as §1

[18] = biological target: Gal(b1-4)GlcNAc(b1-2)Man(a1-6)[Man(a1-3)]Man(b1-4)GlcNAc(b1-4)GlcNAc
Method in brief: as §1

[19] = biological target: Gal(b1-4)GlcNAc(b1-2)[Gal(b1-4)GlcNAc(b1-4)]Man(a1-3)[Gal(b1-4)GlcNAc(b1-2)Man(a1-6)]Man(b1-4)GlcNAc(b1-4)GlcNAc
Method in brief: as §1

[20] = biological target: Gal(b1-4)GlcNAc(b1-2)[Gal(b1-4)GlcNAc(b1-4)]Man(a1-3)[Gal(b1-4)GlcNAc(b1-2)[Gal(b1-4)GlcNAc(b1-6)]Man(a1-6)]Man(b1-4)GlcNAc(b1-4)GlcNAc
Method in brief: as §1

[21] = biological target: Gal(b1-4)GlcNAc(b1-2)[Gal(b1-4)GlcNAc(b1-4)]Man(a1-3)[GlcNAc(b1-4)][Gal(b1-4)GlcNAc(b1-2)Man(a1-6)]Man(b1-4)GlcNAc(b1-4)GlcNAc
Method in brief: as §1

[22] = biological target: Gal(b1-4)GlcNAc(b1-2)[Gal(b1-4)GlcNAc(b1-4)]Man(a1-3)[GlcNAc(b1-4)][Gal(b1-4)GlcNAc(b1-2)[Gal(b1-4)GlcNAc(b1-6)]Man(a1-6)]Man(b1-4)GlcNAc(b1-4)GlcNAc
Method in brief: as §1

[23] = biological target: Gal(b1-4)GlcNAc(b1-2)[Gal(b1-4)GlcNAc(b1-6)]Man(a1-6)[Gal(b1-4)GlcNAc(b1-2)Man(a1-3)]Man(b1-4)GlcNAc(b1-4)GlcNAc
Method in brief: as §1

[24] = biological target: Gal(b1-4)GlcNAc(b1-2)[Gal(b1-4)GlcNAc(b1-6)]Man(a1-6)[Gal(b1-4)GlcNAc(b1-2)Man(a1-3)]Man(b1-4)GlcNAc(b1-4)[Fuc(a1-6)]GlcNAc
Method in brief: as §1

[25] = biological target: Gal(b1-4)GlcNAc(b1-2)[Gal(b1-4)GlcNAc(b1-6)]Man(a1-6)[GlcNAc(b1-4)][Gal(b1-4)GlcNAc(b1-2)Man(a1-3)]Man(b1-4)GlcNAc(b1-4)GlcNAc
Method in brief: as §1

[26] = biological target: Gal(b1-4)GlcNAc(b1-2)[Gal(b1-4)GlcNAc(b1-6)]Man(a1-6)[GlcNAc(b1-4)][Gal(b1-4)GlcNAc(b1-2)[Gal(b1-4)GlcNAc(b1-4)]Man(a1-3)]Man(b1-4)GlcNAc(b1-4)[Fuc(a1-6)]GlcNAc
Method in brief: as §1

[27] = biological target: Gal(b1-4)GlcNAc(b1-3)Gal(b1-3)GalNAc
Method in brief: as §1

[28] = biological target: Gal(b1-4)GlcNAc(b1-3)Gal(b1-3)GlcNAc
Method in brief: as §1

[29] = biological target: Gal(b1-4)GlcNAc(b1-3)Gal(b1-4)Glc
Method in brief: as §1

[30] = biological target: Gal(b1-4)GlcNAc(b1-3)Gal(b1-4)GlcNAc
Method in brief: as §1

[31] = biological target: Gal(b1-4)GlcNAc(b1-3)Gal(b1-4)GlcNAc(b1-2)Man(a1-3)[Gal(b1-4)GlcNAc(b1-3)Gal(b1-4)GlcNAc(b1-2)Man(a1-6)]Man(b1-4)GlcNAc(b1-4)GlcNAc
Method in brief: as §1

[32] = biological target: Gal(b1-4)GlcNAc(b1-3)Gal(b1-4)GlcNAc(b1-2)Man(a1-3)[Gal(b1-4)GlcNAc(b1-3)Gal(b1-4)GlcNAc(b1-2)Man(a1-6)]Man(b1-4)GlcNAc(b1-4)[Fuc(a1-6)]GlcNAc
Method in brief: as §1

[33] = biological target: Gal(b1-4)GlcNAc(b1-3)Gal(b1-4)GlcNAc(b1-2)[Gal(b1-4)GlcNAc(b1-3)Gal(b1-4)GlcNAc(b1-6)]Man(a1-6)[Gal(b1-4)GlcNAc(b1-3)Gal(b1-4)GlcNAc(b1-2)Man(a1-3)]Man(b1-4)GlcNAc(b1-4)GlcNAc
Method in brief: as §1

B1: FliC (Clostridium difficile) (protein)
chain: MRVNTNVSALIANNQMGRNVNGQSKSMEKLSSGVRIKRAADDAAGLAISEKMRAQIKGLDQAGRNVQDGISVVQTAEGSLEETGNILQRMRTLSLQSANEINNTEEREKIADELTQLKDEIERISSSTEFNGKKLLDGTSSTIRLQVGASYGTNVSGTSNNNNEIKIQLVNTASIMASAGITTASIGSMKAGGTTGTDAAKTMVSSLDAALKSLNSSRAKLGAQQNRLESTQNNLNNTLENVTAAESRIRDTDVASEMVNLSKMNILVQASQSMLAQANQQPQGVLQLLG
glycan array binding signal (z-score) [1]: -0.461 | glycan array binding signal (z-score) [2]: -0.147 | glycan array binding signal (z-score) [3]: -0.467 | glycan array binding signal (z-score) [4]: 0.302 | glycan array binding signal (z-score) (Gal(b1-4)Gal): -0.511 | glycan array binding signal (z-score) [5]: -0.227 | glycan array binding signal (z-score) [6]: -0.515 | glycan array binding signal (z-score) (Gal(b1-4)Glc): 0.396 | glycan array binding signal (z-score) (Gal(b1-4)Glc6S): -0.272 | glycan array binding signal (z-score) (Gal(b1-4)GlcNAc): -0.24 | glycan array binding signal (z-score) [7]: -0.175 | glycan array binding signal (z-score) (Gal(b1-4)GlcNAc(b1-2)Man): -0.102 | glycan array binding signal (z-score) [8]: -0.407 | glycan array binding signal (z-score) [9]: 0.049 | glycan array binding signal (z-score) [10]: -0.215 | glycan array binding signal (z-score) [11]: -0.812 | glycan array binding signal (z-score) [12]: -0.641 | glycan array binding signal (z-score) [13]: -0.238 | glycan array binding signal (z-score) [14]: -0.312 | glycan array binding signal (z-score) [15]: -0.698 | glycan array binding signal (z-score) [16]: 0.137 | glycan array binding signal (z-score) [17]: -0.929 | glycan array binding signal (z-score) [18]: 0.554 | glycan array binding signal (z-score) [19]: -0.513 | glycan array binding signal (z-score) [20]: 0.193 | glycan array binding signal (z-score) [21]: -0.113 | glycan array binding signal (z-score) [22]: 0.207 | glycan array binding signal (z-score) [23]: 0.587 | glycan array binding signal (z-score) [24]: 0.28 | glycan array binding signal (z-score) [25]: 0.329 | glycan array binding signal (z-score) [26]: -0.843 | glycan array binding signal (z-score) [27]: 0.009 | glycan array binding signal (z-score) [28]: -0.332 | glycan array binding signal (z-score) [29]: -0.402 | glycan array binding signal (z-score) [30]: -0.721 | glycan array binding signal (z-score) [31]: 0.538 | glycan array binding signal (z-score) [32]: 2.39 | glycan array binding signal (z-score) [33]: -0.22
